The list shows a part of the results.

Sequences of proteins named here, by UniProt entry; tags and fusion partners are left off.
UniProt Q0JBA9, entry or part of it: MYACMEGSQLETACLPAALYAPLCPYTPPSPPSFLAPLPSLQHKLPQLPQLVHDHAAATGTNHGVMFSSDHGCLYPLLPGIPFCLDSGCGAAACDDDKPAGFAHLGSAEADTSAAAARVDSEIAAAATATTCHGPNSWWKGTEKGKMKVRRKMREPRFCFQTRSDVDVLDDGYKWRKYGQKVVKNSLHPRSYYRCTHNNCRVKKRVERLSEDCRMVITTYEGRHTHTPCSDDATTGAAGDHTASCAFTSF

In the assay the target is OsWRKY34 (Oryza sativa, UniProt Q0JBA9 1-250). In words: protein-binding microarray (RPBM); PBS, 2% BSA, 51.3 ng/ul salmon testes DNA, 50 uM zinc acetate, 200 nM TF, 25 C, 1 h; high values mean tight binding. The note with it: protein: recombinant; tags: N-terminal polyhistidine and DsRed monomer fusion (pET32a); label: CyDye5-dUTP incorporated in the synthesized complementary strand; 3' TTTTT single-stranded linker to array surface; dsDNA, one strand shown. An outline of the steps: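 Polyhistidine-tagged DsRed fusions of transcription factors, joined at the N-terminus, were expressed in E. coli BL21-CodonPlus and isolated on Ni–NTA. They were incubated at 200 nM for 1 h at 25 °C on a custom Agilent array, double-stranded and BSA-blocked, in PBS with 2% BSA, salmon testes DNA and 50 µM zinc acetate. The binding signal is per-feature fluorescence intensity (arbitrary units) read on an Axon 4000B scanner after washing.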
For the sequence “TCTCGTTTCGTCGTCGCCACCATTATAATCTCATCATGACCGGAGTCACCTAGTGCAG”, the binding signal was 12600 fluorescence intensity (a.u.).
For the sequence “TTACGGTTGCCTGTATTTGTTGTGCATCATGATCATTCAGCGGAGTCACCTAGTGCAG”, the binding signal is 11900 fluorescence intensity (a.u.).
On to “CCAGCCCATTAGGCAGCCCATCACAGGTCACAGCCCAAAACGGAGTCACCTAGTGCAG”, for which the binding signal was 9570 fluorescence intensity (a.u.).
With “GATTTTTTTCACTTACACAAACCTGGACTGCAGTCCACTACGGAGTCACCTAGTGCAG”, the binding signal is 8530 fluorescence intensity (a.u.).
Consider “TTCGACTTGACTTGACTTAGTTTACGACCTTGTATTTCCCCGGAGTCACCTAGTGCAG”, for which the binding signal was 8400 fluorescence intensity (a.u.).
As to “GTCTGAAATGTCTCACACGCTAGCTGCCAAATACATCGGTCGGAGTCACCTAGTGCAG”, the binding signal was 9340 fluorescence intensity (a.u.).
In the case of “TTTTATTCAATATATGTATATAGGTATCTTTGGTTGTTTTCGGAGTCACCTAGTGCAG”, the binding signal was 8320 fluorescence intensity (a.u.).
As for “GGGGATCCCTATTTCTCTGTATATGTCCTTTTGTAGCCTTCGGAGTCACCTAGTGCAG”, the figure is 10800 fluorescence intensity (a.u.); as for “AACTCTTCAGTAACCCCACCAGCCCACCTTTCCGGTCCAACGGAGTCACCTAGTGCAG”, 9510 fluorescence intensity (a.u.); as for “GGCTTCAGTTGTCCTTCCAGCTTCACTGGCCTTAACCGGACGGAGTCACCTAGTGCAG”, 8940 fluorescence intensity (a.u.).
With “CATATGCTAATTACTCCATCCATTTTATATTATATATCATCGGAGTCACCTAGTGCAG”, the binding signal is 9100 fluorescence intensity (a.u.).
As for “CGTCGCCTCGCCGTCTGCCGCTGCCACCCAGCGAACGCAACGGAGTCACCTAGTGCAG”, the binding signal was 8100 fluorescence intensity (a.u.).
For “CGTTTCTCTCTCTTACCATGTTGTCAGTCGCGTTTCTGCTCGGAGTCACCTAGTGCAG”, the binding signal was 11400 fluorescence intensity (a.u.).
“CTCCACGTTGGTTTTGATTGTGCGCTGGAGGAGAGAGAACCGGAGTCACCTAGTGCAG”: the binding signal was 8640 fluorescence intensity (a.u.).
Under “CACCTCCCGCCCTCTCTCCGGCCACACAAACCGCGGCTAACGGAGTCACCTAGTGCAG” stands 8250 fluorescence intensity (a.u.); under “CTTCTCGTAGCCTCTTCAGATCGATCGCTTCGTCGTCATGCGGAGTCACCTAGTGCAG”, 9770 fluorescence intensity (a.u.); under “GGCTTTGCGTGTTGTCGAGTTCCCACATGCTATCGCCCAACGGAGTCACCTAGTGCAG”, 9520 fluorescence intensity (a.u.).
On to “CCACTTTTTTACAGTATTCACGAACAAATACACGATCTTCCGGAGTCACCTAGTGCAG”, for which the binding signal is 8980 fluorescence intensity (a.u.).
For “CCCCACCGCCCACCGCCCACCGCCCACCCACCTCCGCACCCGGAGTCACCTAGTGCAG”, the binding signal was 11600 fluorescence intensity (a.u.).
Turning to “CAACACGCCACTCGCCTCATGCCTCAGCTCCGCCCTGACACGGAGTCACCTAGTGCAG”, the binding signal is 14300 fluorescence intensity (a.u.).
As for “ACAGAAAATCATTTAATTTTTCTTCTTTAGTTTCTGCTGTCGGAGTCACCTAGTGCAG”, the figure is 8940 fluorescence intensity (a.u.); as for “TTCACCATGGCGGACCTCACGCTTCTCGCCCGCTTCTTCACGGAGTCACCTAGTGCAG”, 14700 fluorescence intensity (a.u.).
For “ATCCACAAGTTAATATGGTCTTTATGGTTCAACCACTATACGGAGTCACCTAGTGCAG”, the binding signal was 8690 fluorescence intensity (a.u.).
As for “GATTAGTGTGGTGGCATTCTTTTCTTCCATGATGCTACAGCGGAGTCACCTAGTGCAG”, the binding signal was 9620 fluorescence intensity (a.u.).
For the sequence “GACCTCGATTCGTCCATCCAGCTTCCACTACCCCTCCGCGCGGAGTCACCTAGTGCAG”, the binding signal is 10000 fluorescence intensity (a.u.).
Turning to “GTGTTACCACTTTACTTGTACGGTTGTGTTCAGAAGTGGACGGAGTCACCTAGTGCAG”, the binding signal is 9380 fluorescence intensity (a.u.).
With “CCCTCTCTACCGCTTTGCCTATTCAACAGTCAGGCTCACACGGAGTCACCTAGTGCAG”, the binding signal is 9110 fluorescence intensity (a.u.).
Regarding “ATCTCCATCTTCACTGAGCATTTTGTCATTAACTACCTCTCGGAGTCACCTAGTGCAG”, the binding signal was 9960 fluorescence intensity (a.u.).
For the sequence “TCCTCCCGAGTCCAGTCCACTCCGCGACCGCGCCAACATGCGGAGTCACCTAGTGCAG”, the binding signal was 8030 fluorescence intensity (a.u.).
Under “ATCTCCCTGCCGCAACCCTAGCCTCGCCGCCGCCGCCGCCCGGAGTCACCTAGTGCAG” stands 9120 fluorescence intensity (a.u.).
Under “AACCTCAATTTTGTTTGTTTTGCCTTTTGGTTCAAATACTCGGAGTCACCTAGTGCAG” stands 8180 fluorescence intensity (a.u.).
As for “CTAATCACGGTCAAACTGCTTCGGTCAAACTTCACGTCCACGGAGTCACCTAGTGCAG”, the binding signal was 11100 fluorescence intensity (a.u.).
For “CCGTATCTGACTGGTGTATTTTGTGATTCTTTTTTTTATGCGGAGTCACCTAGTGCAG”, the binding signal is 12300 fluorescence intensity (a.u.).
For the sequence “GACCGGCTTAGCACCAACATTCCGGCTGGCCTCGCCCAATCGGAGTCACCTAGTGCAG”, the binding signal is 8460 fluorescence intensity (a.u.).
“CTCGCCATGGCCTCGCCTATGCCAACGCCTACCCACCGCGCGGAGTCACCTAGTGCAG”: the binding signal was 9010 fluorescence intensity (a.u.).
With “ATGTTTATCTATGTTGAATGCCGCGACTCATTTATTAGCTCGGAGTCACCTAGTGCAG”, the binding signal was 9000 fluorescence intensity (a.u.).
Under “TTTAATGTATCACACCGTTAATTTTTTTTCAACGTTTGACCGGAGTCACCTAGTGCAG” stands 8900 fluorescence intensity (a.u.).
Consider “CGACCCACTTGCATCTCCGTTGATCCATTACAATGTTTCTCGGAGTCACCTAGTGCAG”, for which the binding signal is 10800 fluorescence intensity (a.u.).
With “TCAAAATGTTCGACACCGTTGACTTTTTAACACATGTTTGCGGAGTCACCTAGTGCAG”, the binding signal is 14400 fluorescence intensity (a.u.).
For “CCCGGCCTTCGCGCCAGTCTTCTCCATCGCCGCCGCCATCCGGAGTCACCTAGTGCAG”, the binding signal is 8450 fluorescence intensity (a.u.).
“ACATTCAGACCAGCACCAACTGCATGCAGATTTGCATCATCGGAGTCACCTAGTGCAG”: the binding signal was 8860 fluorescence intensity (a.u.).
As for “CTCACATTTGCACCGCACGAGGACAGGCAGCCGCTTTCAACGGAGTCACCTAGTGCAG”, the binding signal was 10100 fluorescence intensity (a.u.).

For the origin of these results see PMC7819943, “Rice protein-binding microarrays: a tool to detect cis-acting elements near promoter regions in rice”.
